Results published in publication PMC12142464, “High-light-inducible proteins control associations between chlorophyll synthase and the Photosystem II biogenesis factor Ycf39” (Plant Physiology, 2025).
No constants are given. Whether binding was seen depends on the method and setting. For part of these data: Binding calls can cover weak binding; strength is not graded here. For part of these data: Binding seen in cells or lysates may run through a third protein. For part of these data: Tags and fused reporters may be left off the sequences shown.

Tests used:
[1] = target: T1, High-light-inducible protein D (native) (Synechocystis sp. PCC 6803 (endogenous in Synechocystis)) (UniProt P72932); experiment: negative-stain single-particle electron microscopy; complexes of the f.ChlG pulldown (f.chlG/ΔchlG/ΔhliC strain) eluted from CN gel bands, 2% uranyl acetate; 2D class averages fitted with AlphaFold3/MD models
T1 sequence: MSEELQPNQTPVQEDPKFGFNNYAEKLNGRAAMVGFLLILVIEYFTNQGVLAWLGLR

[2] = target: T2, His-tagged HliD (Synechocystis sp. PCC 6803) (UniProt P72932); experiment: pull-down; His-HliD and His-^Δ11HliD isolated by nickel-affinity chromatography from HL-treated cells (2 h); ChlG, HliD and Ycf39 in the eluates by immunodetection after SDS-PAGE; WT control elution
T2 sequence: T1 sequence

[3] = target: T3, Truncated His-tagged HliD lacking the first 11 residues (Synechocystis sp. PCC 6803) (UniProt P72932); experiment: as above
T3 sequence: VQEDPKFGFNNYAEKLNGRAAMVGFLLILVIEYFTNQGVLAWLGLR

[4] = target: T1, High-light-inducible protein D (native) (Synechocystis sp. PCC 6803 (endogenous in Synechocystis)); experiment: co-IP; f.ChlG isolated with anti-FLAG resin from membranes solubilised with 1% n-dodecyl-β-D-maltoside and 1% glycol-diosgenin; eluate resolved by 2D CN (A8-35 amphipol)/SDS-PAGE, CBB stain; strains f.chlG/ΔchlG (HL 2 h), f.chlG/ΔchlG/ΔhliC (HL 2 h), f.chlG/ΔchlG/ΔhliC/Δycf39 (NL)
[5] = target: T1, High-light-inducible protein D (native) (Synechocystis sp. PCC 6803 (endogenous in Synechocystis)); experiment: native gel or EMSA; 2D BN/SDS-PAGE (4-14% BN) of solubilised membrane proteins from WT, ΔhliD, Δycf39, ΔhliC and his-^Δ11hliD cells grown under NL or shifted to HL (1-16 h); immunoblot with anti-ChlG and anti-Ycf39
[6] = target: T3, Truncated His-tagged HliD lacking the first 11 residues (Synechocystis sp. PCC 6803); experiment: as above

- binding [1]: binds
- binding [2]: binds
- binding [3]: no binding
- binding [4]: binds
- binding [5]: binds
- binding [6]: no binding
Substance: Ycf39 (native)
